No constants are given. Whether binding was seen depends on the method and setting. In cells and extracts the contact can be indirect.
Molecular target: FLAG-MKK3 (UniProt P46734)
Test: co-immunoprecipitation, HEK293 cells

The chains behind the UniProt entries cited, without tags or fusion partners. Where a name states a change or a piece, a line headed by the entry shows the natural chain unless it says otherwise.
UniProt P46734: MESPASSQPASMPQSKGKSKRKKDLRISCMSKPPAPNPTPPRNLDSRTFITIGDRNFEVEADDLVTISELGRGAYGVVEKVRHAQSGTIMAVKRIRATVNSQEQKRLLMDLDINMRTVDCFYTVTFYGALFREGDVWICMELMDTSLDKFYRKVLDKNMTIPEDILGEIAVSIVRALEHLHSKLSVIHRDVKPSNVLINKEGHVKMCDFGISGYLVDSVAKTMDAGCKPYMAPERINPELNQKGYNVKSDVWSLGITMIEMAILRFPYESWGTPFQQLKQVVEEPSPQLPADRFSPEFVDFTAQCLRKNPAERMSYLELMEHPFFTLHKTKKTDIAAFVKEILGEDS
UniProt Q8IUH5: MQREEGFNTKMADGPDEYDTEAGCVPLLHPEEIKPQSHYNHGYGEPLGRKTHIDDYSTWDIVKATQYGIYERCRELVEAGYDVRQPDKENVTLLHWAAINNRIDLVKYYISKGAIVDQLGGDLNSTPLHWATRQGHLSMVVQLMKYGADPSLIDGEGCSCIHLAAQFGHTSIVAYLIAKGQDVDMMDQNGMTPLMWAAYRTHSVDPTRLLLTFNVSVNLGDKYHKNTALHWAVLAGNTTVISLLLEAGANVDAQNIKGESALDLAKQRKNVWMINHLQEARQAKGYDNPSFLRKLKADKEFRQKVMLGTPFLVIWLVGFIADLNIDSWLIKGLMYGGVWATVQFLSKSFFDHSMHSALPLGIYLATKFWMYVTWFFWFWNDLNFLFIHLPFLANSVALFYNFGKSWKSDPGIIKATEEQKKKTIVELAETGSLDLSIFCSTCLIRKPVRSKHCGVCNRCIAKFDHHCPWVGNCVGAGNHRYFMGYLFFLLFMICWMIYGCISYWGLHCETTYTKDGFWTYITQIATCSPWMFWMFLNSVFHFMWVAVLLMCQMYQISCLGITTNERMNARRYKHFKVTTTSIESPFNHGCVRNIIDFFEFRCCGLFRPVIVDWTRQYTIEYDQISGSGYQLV

binding: no binding
Substance: myc-tagged full-length palmitoyl acyl transferase zinc-finger DHHC type containing 17 (zD17) (from UniProt Q8IUH5 1-632) (enzyme)
